Measured values: the supplement of paper PMC10849652
The other results are listed elsewhere or left out. Residues, ends and D or L forms follow the SMILES beside them. *: point of attachment. Cbz = O=C(OCc1ccccc1)*

Chains of the proteins cited; added tags and fusions are not shown. Lines headed by an entry give the natural chain unless they say otherwise; changes in a name come on top.
UniProt Q7L5L3: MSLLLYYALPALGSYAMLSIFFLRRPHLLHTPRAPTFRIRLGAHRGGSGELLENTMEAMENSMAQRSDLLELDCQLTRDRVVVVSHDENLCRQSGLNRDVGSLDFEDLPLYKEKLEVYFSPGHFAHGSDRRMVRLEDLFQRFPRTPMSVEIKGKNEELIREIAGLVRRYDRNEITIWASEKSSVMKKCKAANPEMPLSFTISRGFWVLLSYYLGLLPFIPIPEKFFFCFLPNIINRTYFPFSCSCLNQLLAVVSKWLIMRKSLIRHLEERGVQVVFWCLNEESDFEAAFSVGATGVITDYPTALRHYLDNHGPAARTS
UniProt Q8IWF2: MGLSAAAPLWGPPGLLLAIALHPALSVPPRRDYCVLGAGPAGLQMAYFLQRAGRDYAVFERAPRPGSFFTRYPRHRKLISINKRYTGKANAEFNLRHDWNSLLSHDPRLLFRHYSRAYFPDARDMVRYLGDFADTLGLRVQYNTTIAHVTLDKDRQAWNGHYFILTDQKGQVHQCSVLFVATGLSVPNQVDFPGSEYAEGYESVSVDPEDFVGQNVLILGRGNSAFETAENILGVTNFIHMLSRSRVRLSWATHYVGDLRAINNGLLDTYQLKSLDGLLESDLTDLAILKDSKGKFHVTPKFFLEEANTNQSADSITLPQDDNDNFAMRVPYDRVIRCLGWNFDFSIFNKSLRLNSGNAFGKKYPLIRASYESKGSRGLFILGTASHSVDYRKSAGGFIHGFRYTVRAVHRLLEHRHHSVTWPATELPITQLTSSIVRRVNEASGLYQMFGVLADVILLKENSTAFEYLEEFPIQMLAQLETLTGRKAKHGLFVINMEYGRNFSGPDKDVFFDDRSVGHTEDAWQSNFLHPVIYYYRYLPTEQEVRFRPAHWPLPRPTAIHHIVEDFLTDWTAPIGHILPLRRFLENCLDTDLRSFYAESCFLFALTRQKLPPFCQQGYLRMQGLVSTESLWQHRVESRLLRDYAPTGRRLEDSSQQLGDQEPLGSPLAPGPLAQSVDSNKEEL
UniProt Q8IVV7: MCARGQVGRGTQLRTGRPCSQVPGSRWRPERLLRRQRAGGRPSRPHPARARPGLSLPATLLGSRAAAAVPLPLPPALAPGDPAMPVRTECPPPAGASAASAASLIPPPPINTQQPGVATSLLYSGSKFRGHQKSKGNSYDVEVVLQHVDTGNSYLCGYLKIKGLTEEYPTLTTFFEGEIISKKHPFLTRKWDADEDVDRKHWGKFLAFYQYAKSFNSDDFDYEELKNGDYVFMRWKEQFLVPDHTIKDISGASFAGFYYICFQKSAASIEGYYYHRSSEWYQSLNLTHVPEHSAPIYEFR
UniProt Q8N4A0: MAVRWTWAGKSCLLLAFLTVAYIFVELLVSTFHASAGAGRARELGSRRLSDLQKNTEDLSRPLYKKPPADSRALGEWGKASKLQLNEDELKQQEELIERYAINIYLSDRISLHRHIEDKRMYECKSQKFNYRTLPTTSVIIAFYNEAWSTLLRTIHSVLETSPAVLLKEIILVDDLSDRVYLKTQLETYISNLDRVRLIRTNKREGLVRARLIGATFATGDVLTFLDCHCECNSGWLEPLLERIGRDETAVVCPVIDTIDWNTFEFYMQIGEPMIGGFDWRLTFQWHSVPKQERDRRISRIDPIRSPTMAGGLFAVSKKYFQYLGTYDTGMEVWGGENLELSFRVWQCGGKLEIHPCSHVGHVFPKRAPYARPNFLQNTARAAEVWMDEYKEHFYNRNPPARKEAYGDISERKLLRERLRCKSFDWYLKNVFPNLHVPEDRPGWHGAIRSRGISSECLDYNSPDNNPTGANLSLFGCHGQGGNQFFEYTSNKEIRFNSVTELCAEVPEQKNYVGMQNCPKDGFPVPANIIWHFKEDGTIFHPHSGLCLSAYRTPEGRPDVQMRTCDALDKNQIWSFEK
UniProt Q9NXN4: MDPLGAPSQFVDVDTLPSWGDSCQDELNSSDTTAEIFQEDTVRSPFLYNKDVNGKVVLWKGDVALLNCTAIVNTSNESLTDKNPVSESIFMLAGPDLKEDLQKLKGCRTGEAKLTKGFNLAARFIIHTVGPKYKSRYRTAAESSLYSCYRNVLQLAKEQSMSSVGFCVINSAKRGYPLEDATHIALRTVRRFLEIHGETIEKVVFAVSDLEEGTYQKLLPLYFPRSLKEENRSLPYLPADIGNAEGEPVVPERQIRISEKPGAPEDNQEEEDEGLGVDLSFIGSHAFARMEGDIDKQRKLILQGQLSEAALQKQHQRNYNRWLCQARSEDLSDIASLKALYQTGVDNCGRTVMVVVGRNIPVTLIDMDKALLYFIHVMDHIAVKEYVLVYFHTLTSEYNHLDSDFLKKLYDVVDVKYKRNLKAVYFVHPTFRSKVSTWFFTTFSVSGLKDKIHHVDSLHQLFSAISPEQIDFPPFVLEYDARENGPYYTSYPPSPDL
UniProt O75879: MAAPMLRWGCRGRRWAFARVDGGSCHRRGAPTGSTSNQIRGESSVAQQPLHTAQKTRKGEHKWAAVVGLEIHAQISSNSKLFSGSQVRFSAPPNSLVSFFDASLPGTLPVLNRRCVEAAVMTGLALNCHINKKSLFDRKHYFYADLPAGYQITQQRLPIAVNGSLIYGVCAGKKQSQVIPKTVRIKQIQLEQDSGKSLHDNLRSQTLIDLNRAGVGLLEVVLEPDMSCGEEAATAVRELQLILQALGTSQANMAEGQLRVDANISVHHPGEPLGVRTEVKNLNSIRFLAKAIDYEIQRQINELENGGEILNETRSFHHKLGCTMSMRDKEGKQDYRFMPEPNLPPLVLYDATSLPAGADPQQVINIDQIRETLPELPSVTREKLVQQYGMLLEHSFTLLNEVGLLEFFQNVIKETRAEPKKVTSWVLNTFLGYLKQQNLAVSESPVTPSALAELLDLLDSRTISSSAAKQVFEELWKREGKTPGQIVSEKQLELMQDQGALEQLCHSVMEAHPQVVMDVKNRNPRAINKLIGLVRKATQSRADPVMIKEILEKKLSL
UniProt Q70Z53: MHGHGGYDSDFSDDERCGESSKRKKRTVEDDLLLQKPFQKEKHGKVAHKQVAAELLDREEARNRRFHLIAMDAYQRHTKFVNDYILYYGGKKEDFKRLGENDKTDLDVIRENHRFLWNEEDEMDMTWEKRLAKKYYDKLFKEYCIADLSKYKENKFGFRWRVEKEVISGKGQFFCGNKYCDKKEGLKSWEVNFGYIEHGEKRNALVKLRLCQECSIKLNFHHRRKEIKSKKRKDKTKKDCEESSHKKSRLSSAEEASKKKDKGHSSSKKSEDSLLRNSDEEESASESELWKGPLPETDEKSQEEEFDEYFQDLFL
UniProt Q9H840: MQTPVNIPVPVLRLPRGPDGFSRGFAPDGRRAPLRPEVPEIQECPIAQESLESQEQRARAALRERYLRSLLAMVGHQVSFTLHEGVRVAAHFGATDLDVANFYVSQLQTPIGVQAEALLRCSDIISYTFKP
UniProt Q05932: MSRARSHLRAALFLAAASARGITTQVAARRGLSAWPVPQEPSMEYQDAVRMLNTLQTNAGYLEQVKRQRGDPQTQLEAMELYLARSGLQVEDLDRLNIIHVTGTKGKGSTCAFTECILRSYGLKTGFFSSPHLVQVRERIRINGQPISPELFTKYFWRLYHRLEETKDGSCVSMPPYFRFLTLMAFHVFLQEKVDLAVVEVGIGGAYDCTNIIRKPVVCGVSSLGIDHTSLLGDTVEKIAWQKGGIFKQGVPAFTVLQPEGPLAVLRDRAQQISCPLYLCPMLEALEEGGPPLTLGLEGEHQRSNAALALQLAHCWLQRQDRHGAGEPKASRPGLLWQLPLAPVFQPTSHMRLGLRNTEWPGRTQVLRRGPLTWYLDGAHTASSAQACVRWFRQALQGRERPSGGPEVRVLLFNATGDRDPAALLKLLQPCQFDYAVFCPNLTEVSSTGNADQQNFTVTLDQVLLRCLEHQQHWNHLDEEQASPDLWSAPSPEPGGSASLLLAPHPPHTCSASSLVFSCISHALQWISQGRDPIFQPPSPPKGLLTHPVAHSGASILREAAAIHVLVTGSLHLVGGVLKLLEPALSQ
UniProt P15976: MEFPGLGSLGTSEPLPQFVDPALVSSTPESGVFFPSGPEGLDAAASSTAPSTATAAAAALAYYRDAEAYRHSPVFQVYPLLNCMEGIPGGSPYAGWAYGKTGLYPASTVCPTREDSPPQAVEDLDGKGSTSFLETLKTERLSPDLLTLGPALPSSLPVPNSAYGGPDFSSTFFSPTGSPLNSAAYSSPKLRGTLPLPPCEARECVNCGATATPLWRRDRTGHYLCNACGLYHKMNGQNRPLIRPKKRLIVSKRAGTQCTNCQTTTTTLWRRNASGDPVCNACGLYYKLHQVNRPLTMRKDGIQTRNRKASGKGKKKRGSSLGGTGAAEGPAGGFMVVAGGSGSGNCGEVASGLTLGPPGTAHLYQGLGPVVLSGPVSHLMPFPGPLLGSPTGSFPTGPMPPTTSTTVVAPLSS
UniProt Q6P4F1: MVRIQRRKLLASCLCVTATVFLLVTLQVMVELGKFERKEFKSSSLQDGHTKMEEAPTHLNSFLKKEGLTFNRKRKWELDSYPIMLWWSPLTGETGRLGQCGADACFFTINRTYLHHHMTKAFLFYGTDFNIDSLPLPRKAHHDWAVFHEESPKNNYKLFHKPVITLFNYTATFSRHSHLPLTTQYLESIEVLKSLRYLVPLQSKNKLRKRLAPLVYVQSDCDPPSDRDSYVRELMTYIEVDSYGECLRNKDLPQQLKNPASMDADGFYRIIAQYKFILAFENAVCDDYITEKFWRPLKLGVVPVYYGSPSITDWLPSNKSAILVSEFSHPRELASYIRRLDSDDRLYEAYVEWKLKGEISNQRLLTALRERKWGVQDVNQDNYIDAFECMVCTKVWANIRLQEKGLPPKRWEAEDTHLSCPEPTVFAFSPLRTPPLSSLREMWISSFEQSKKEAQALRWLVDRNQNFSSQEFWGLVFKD
UniProt Q96QD9: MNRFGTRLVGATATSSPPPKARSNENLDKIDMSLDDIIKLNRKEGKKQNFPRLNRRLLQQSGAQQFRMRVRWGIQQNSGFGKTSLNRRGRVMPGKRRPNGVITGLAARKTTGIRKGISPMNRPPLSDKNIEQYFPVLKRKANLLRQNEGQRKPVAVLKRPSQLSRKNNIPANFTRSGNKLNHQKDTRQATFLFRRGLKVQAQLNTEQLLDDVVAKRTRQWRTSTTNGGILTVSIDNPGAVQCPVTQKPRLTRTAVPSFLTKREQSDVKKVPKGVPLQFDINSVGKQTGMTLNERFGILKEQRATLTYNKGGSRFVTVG
UniProt Q9BVM4: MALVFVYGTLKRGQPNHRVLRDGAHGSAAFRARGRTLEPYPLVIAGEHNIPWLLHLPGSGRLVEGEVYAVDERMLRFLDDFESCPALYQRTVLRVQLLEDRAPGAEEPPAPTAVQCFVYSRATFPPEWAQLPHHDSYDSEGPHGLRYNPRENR
UniProt Q06547, whole entry, looked up: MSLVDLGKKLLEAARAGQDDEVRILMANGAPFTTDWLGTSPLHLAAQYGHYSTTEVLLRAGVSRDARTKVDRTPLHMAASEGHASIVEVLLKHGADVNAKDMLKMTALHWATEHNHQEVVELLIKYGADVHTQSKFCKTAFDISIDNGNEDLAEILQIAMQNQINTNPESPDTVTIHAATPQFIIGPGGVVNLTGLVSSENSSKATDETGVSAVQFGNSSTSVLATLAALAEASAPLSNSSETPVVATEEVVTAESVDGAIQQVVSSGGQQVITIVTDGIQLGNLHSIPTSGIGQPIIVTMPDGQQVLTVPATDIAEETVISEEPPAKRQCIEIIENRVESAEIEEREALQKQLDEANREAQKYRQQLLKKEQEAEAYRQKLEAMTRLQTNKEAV
UniProt Q8IVP5: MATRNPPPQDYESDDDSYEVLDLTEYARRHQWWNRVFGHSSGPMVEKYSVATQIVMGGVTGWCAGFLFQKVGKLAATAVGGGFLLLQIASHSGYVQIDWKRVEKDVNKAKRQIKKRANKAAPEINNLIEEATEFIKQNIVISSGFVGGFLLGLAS
UniProt A2VDF0: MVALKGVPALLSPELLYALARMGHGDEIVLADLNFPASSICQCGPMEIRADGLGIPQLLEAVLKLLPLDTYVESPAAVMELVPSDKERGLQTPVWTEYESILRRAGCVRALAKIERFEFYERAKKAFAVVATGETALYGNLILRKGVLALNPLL
UniProt P22466: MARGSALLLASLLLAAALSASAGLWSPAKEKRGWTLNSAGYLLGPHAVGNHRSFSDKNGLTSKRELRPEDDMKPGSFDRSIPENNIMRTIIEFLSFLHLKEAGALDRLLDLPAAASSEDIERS
UniProt O14893: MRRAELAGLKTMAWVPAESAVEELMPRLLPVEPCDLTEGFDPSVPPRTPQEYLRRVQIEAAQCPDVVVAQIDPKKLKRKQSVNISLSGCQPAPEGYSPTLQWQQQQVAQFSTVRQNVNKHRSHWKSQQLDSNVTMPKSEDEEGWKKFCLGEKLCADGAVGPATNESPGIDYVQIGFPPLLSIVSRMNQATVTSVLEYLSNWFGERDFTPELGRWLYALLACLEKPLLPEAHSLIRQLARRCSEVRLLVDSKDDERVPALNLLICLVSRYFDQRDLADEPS
UniProt O43716: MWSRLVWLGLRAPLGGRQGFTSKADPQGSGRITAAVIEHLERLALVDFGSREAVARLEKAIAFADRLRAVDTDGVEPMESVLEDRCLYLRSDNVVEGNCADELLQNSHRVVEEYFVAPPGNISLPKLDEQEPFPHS

Assays:
Test in all cases: log2 fold change, soluble protein after heating vs DMSO (PISA); higher = thermal stabilisation; K562 cells, 10 uM, 30 min; active = over 0.2 and 3.5 SD of the protein, either way, in both replicates (recomputed)
erlotinib = compound: C#Cc1cccc(Nc2ncnc3cc(OCCOC)c(OCCOC)cc23)c1 [erlotinib]
In short: (§1)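 K562 cells at 2×10^6 cells/mL were treated for 30 min with 10 μM compound, and aliquots were heated for 3 min over 48°C-58°C before pooling. Extraction used PBS with 0.5% NP-40 at 4°C, and soluble protein was the supernatant after 21,000xg for 90 min, measured by TMTpro 16plex LC-MS/MS with channel sums equalised. Thermal stability values, relative to control samples and from duplicates, are log2 fold changes.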

[1] = compound: C/C(=N\NC(=O)C1=CC(=CC=C1)S(=O)(=O)N2CCOCC2)/C3=C(C=CC(=C3)Cl)O
In short: as §1

[2] = compound: C1=CC(=C(C=C1Cl)C2=NC3=NC=CN=C3C(=N2)NC4=CC=NC=C4)F
In short: as §1

[3] = compound: C1=CC(=CC=C1C2=NC3=C(N2)C=C(C=C3)C(=O)N)OC4=CC=C(C=C4)Cl
In short: as §1

[4] = compound: C1=CC2=C(C=CC(=C2)/C=C\3/C(=O)NC(=NCC4=CC=CS4)S3)N=C1
In short: as §1

[5] = compound: C1=CC=C2C(=C1)C3=NNC4=CC=CC(=C43)C2=O
In short: as §1

[6] = compound: CC(=O)c1cnc2ccc(-c3cc(Cl)c(O)c(Cl)c3)nc2c1N[C@H]1CC[C@H](CN(C)C)CC1
In short: as §1

[7] = compound: CC(C)(O)CC(=O)NCCn1ccc2ncnc(Nc3ccc(Oc4cccc(C(F)(F)F)c4)c(Cl)c3)c21
In short: as §1

[8] = compound: CC(C)C1=C2N=C(C=C(N2N=C1)NCC3=CC=CC=C3)NCCCCCCN
In short: as §1

[9] = compound: C1=CC=C(C=C1)C2=NC(=C(N2)C3=CC=NC=C3)C4=CC(=C(C=C4)Cl)O
In short: as §1

[10] = compound: C1CCN(C1)C(=O)NC2=CC=CC(=C2)NC3=NC=C(C(=N3)NCCC4=CN=CN4)Br
In short: as §1

[11] = compound: C1CN(CCC1(CC2=CC=C(C=C2)Cl)N)C3=NC=NC4=C3C=CN4
In short: as §1

IRAK-1-4 Inhibitor I = compound: C1COCCN1CCN2C3=CC=CC=C3N=C2NC(=O)C4=CC(=CC=C4)[N+](=O)[O-] [IRAK-1-4 Inhibitor I]
In short: as §1

ralimetinib = compound: CC(C)(C)Cn1c(N)nc2ccc(-c3[nH]c(C(C)(C)C)nc3-c3ccc(F)cc3)nc21 [ralimetinib]
In short: as §1

[12] = compound: CC(C)C[C@@H](C=O)NC(=O)[C@H](CC(C)C)NC(=O)[C@H](CC(C)C)NC(=O)OCc1ccccc1
In short: as §1

pinometostat = compound: CC(C)N(C[C@H]1O[C@@H](n2cnc3c(N)ncnc32)[C@H](O)[C@@H]1O)[C@H]1C[C@@H](CCc2nc3cc(C(C)(C)C)ccc3[nH]2)C1 [pinometostat]
In short: as §1

[13] = compound: CC1=C(C2=C(C=C1)C(=O)C3=CC=CC=C3N2CCCN)C
In short: as §1

[14] = compound: C1=CC2=NC=CN=C2C=C1/C=C/3\C(=O)NC(=O)S3
In short: as §1

ibrutinib = compound: C=CC(=O)N1CCC[C@@H](n2nc(-c3ccc(Oc4ccccc4)cc3)c3c(N)ncnc32)C1 [ibrutinib]
In short: as §1

[15] = compound: CC1=C(C(CC(=O)N1)C2=CC=C(C=C2)C(F)(F)F)C(=O)NC3=C(C=C4C(=C3)C=NN4)F
In short: as §1

Target | log2 fold change (erlotinib) | log2 fold change [1] | log2 fold change [2] | log2 fold change [3] | log2 fold change [4] | log2 fold change [5] | log2 fold change [6] | log2 fold change [7] | log2 fold change [8] | log2 fold change [9] | log2 fold change [10] | log2 fold change [11] | log2 fold change (IRAK-1-4 Inhibitor I) | log2 fold change (ralimetinib) | log2 fold change [12] | log2 fold change (pinometostat) | log2 fold change [13] | log2 fold change [14] | log2 fold change (ibrutinib) | log2 fold change [15]
GDPD3 (UniProt Q7L5L3) | inactive: -0.03 | inactive: 0.228 | inactive: -0.097 | inactive: -0.061 | inactive: -0.02 | inactive: -0.404 | inactive: -0.319 | inactive: -0.167 | inactive: -0.025 | – | – | – | – | – | – | – | – | – | – | –
FOXRED2 (UniProt Q8IWF2) | inactive: -0.015 | inactive: -0.012 | inactive: -0.046 | inactive: -0.01 | inactive: -0.11 | inactive: 0.18 | inactive: -0.12 | inactive: 0.071 | inactive: -0.039 | inactive: -0.022 | inactive: -0.065 | inactive: 0.092 | inactive: -0.399 | inactive: 0.024 | inactive: 0.188 | inactive: 0.071 | inactive: 0.061 | – | – | –
GID4 (UniProt Q8IVV7) | inactive: -0.033 | inactive: 0.017 | inactive: 0.005 | inactive: 0.028 | inactive: -0.046 | inactive: -0.018 | inactive: 0.025 | inactive: 0.016 | inactive: 0.028 | inactive: -0.072 | inactive: 0.042 | inactive: -0.005 | – | inactive: -0.019 | inactive: 0.027 | – | inactive: -0.071 | inactive: 0.003 | inactive: 0.035 | –
GALNT4 (UniProt Q8N4A0) | inactive: 0.077 | inactive: 0.062 | inactive: 0.075 | inactive: 0.026 | inactive: 0.086 | inactive: 0.008 | inactive: -0.061 | active: -0.41 | inactive: -0.041 | inactive: -0.012 | inactive: 0.006 | inactive: 0.005 | inactive: 0.038 | inactive: -0.003 | inactive: -0.002 | inactive: 0.014 | inactive: 0.072 | inactive: 0.044 | inactive: 0.011 | –
FRMPD3 (UniProt Q5JV73) | inactive: 0.766 | – | inactive: -0.092 | inactive: -0.039 | – | – | – | inactive: 0.246 | inactive: -0.056 | inactive: -0.356 | inactive: 0.31 | inactive: -0.157 | – | inactive: -0.303 | inactive: 0.52 | – | inactive: 0.13 | inactive: -0.241 | inactive: 0.067 | –
GDAP2 (UniProt Q9NXN4) | inactive: 0.044 | inactive: -0.05 | inactive: -0.204 | inactive: 0.01 | inactive: 0.043 | inactive: -0.029 | inactive: -0.175 | inactive: -0.08 | inactive: -0.549 | – | – | – | inactive: 0.062 | – | – | inactive: 0.086 | – | – | – | inactive: -0.133
GATB (UniProt O75879) | inactive: 0.185 | inactive: 0.011 | inactive: 0.092 | inactive: -0.147 | inactive: 0.187 | inactive: 0.044 | inactive: -0.338 | inactive: -0.202 | inactive: -0.04 | inactive: 0.331 | inactive: -0.313 | inactive: -0.031 | inactive: -0.282 | inactive: -0.018 | inactive: -0.323 | inactive: -0.237 | inactive: 0.16 | – | – | inactive: -0.238
GATAD2B (UniProt Q8WXI9) | inactive: 0.007 | – | inactive: 0.013 | inactive: 0.035 | – | – | – | inactive: -0.016 | inactive: -0.022 | inactive: -0.03 | inactive: 0.049 | inactive: 0.011 | inactive: -0.029 | inactive: 0.064 | inactive: -0.08 | inactive: -0.062 | inactive: 0.085 | – | – | –
FRA10AC1 isoform 3 (UniProt Q70Z53) | inactive: -0.02 | inactive: 0.053 | inactive: -0.059 | inactive: -0.12 | inactive: -0.305 | inactive: -0.154 | inactive: 0.024 | inactive: -0.024 | inactive: 0.169 | – | inactive: -0.067 | inactive: 0.126 | inactive: 0.005 | – | – | inactive: 0.001 | inactive: -0.201 | inactive: 0.033 | inactive: -0.014 | –
GEMIN7 (UniProt Q9H840) | inactive: 0.105 | – | inactive: -0.094 | inactive: 0.192 | – | – | – | inactive: 0.029 | inactive: -0.303 | – | – | – | – | – | – | – | – | – | – | –
GDPGP1 (UniProt Q6ZNW5) | inactive: 0.01 | inactive: 0.09 | – | inactive: 0.003 | inactive: -0.067 | inactive: 0.086 | inactive: -0.249 | – | inactive: 0.195 | – | inactive: -0.134 | inactive: -0.029 | – | – | – | – | inactive: 0.319 | – | – | inactive: -0.056
FPGS (UniProt Q05932) | inactive: -0.004 | – | inactive: -0.03 | inactive: -0.089 | – | – | – | inactive: -0.11 | inactive: 0.005 | inactive: -0.11 | – | – | inactive: 0.087 | inactive: -0.119 | inactive: 0.082 | inactive: -0.052 | – | inactive: 0.02 | inactive: 0.009 | –
GATA1 (UniProt P15976) | inactive: 0.05 | inactive: 0.024 | inactive: -0.021 | inactive: -0.015 | inactive: 0.032 | inactive: -0.083 | inactive: 0.051 | inactive: 0.027 | inactive: 0.047 | inactive: -0.021 | inactive: 0.031 | inactive: -0.004 | inactive: 0.038 | inactive: 0.041 | inactive: 0.088 | inactive: 0.027 | active: -0.368 | inactive: 0.028 | inactive: 0.015 | –
GATA2 (UniProt P23769) | inactive: 0.026 | inactive: -0.092 | – | inactive: -0.133 | inactive: -0.072 | inactive: -0.043 | inactive: 0.021 | – | inactive: 0.229 | inactive: 0.005 | – | – | – | inactive: 0.003 | inactive: 0.204 | – | – | inactive: 0.004 | inactive: 0.068 | inactive: -0.022
FUT10 isoform 2 (UniProt Q6P4F1) | – | – | inactive: -0.006 | – | – | – | – | inactive: 0.109 | – | – | – | – | – | – | – | – | – | – | – | –
FYTTD1 (UniProt Q96QD9) | – | inactive: -0.281 | inactive: -0.2 | – | inactive: 0.31 | inactive: -0.119 | inactive: -0.278 | inactive: 0.081 | – | – | inactive: 0.159 | inactive: -0.029 | – | – | – | – | inactive: 0.065 | – | – | –
GGACT (UniProt Q9BVM4) | – | – | – | – | – | – | – | – | – | inactive: 0.059 | – | – | – | inactive: 0.028 | inactive: -0.068 | – | – | – | – | –
GABPB1 (UniProt Q06547) | inactive: 0.043 | – | – | inactive: 0.023 | – | – | – | – | inactive: -0.219 | inactive: 0.121 | inactive: -0.047 | inactive: -0.001 | inactive: 0.041 | inactive: -0.283 | inactive: 0.193 | inactive: 0.017 | inactive: -0.318 | inactive: -0.025 | inactive: 0.027 | –
GALNT3 (UniProt Q14435) | inactive: -0.05 | – | – | inactive: 0.027 | – | – | – | – | inactive: 0.074 | – | inactive: -0.081 | inactive: 0.097 | – | – | – | – | inactive: -0.027 | – | – | –
FUNDC1 (UniProt Q8IVP5) | – | – | – | – | – | – | – | – | – | – | – | – | – | – | – | – | – | active: 0.597 | inactive: -0.023 | –
FUOM (UniProt A2VDF0) | – | – | – | – | – | – | – | – | – | – | inactive: 0.037 | inactive: -0.289 | inactive: 0.02 | – | – | inactive: 0.031 | inactive: 0.067 | inactive: 0.072 | inactive: 0.086 | inactive: 0.018
GAL (UniProt P22466) | inactive: -0.203 | – | – | inactive: -0.157 | – | – | – | – | inactive: 0.16 | inactive: 0.015 | – | – | inactive: 0.05 | inactive: 0 | inactive: 0.108 | inactive: 0.037 | – | inactive: -0.043 | inactive: 0.14 | –
GEMIN2 (UniProt O14893) | – | inactive: -0.086 | active: -0.428 | – | inactive: 0.057 | inactive: -0.042 | inactive: -0.061 | inactive: -0.307 | – | inactive: -0.069 | – | – | inactive: -0.046 | inactive: 0.049 | inactive: 0.012 | inactive: -0.096 | – | inactive: -0.013 | inactive: 0.055 | –
GATC (UniProt O43716) | – | inactive: 0.134 | inactive: -0.02 | – | inactive: -0.035 | inactive: -0.039 | inactive: -0.201 | inactive: 0.031 | – | inactive: 0.003 | inactive: -0.039 | inactive: 0.006 | inactive: -0.043 | inactive: -0.21 | inactive: 0.15 | inactive: -0.131 | inactive: 0.221 | inactive: -0.052 | inactive: 0.047 | inactive: -0.1

Record cards, from the list above. Values in the order: log2 fold change (erlotinib)	log2 fold change [1]	log2 fold change [2]	log2 fold change [3]	log2 fold change [4]	log2 fold change [5]	log2 fold change [6]	log2 fold change [7]	log2 fold change [8]	log2 fold change [9]	log2 fold change [10]	log2 fold change [11]	log2 fold change (IRAK-1-4 Inhibitor I)	log2 fold change (ralimetinib)	log2 fold change [12]	log2 fold change (pinometostat)	log2 fold change [13]	log2 fold change [14]	log2 fold change (ibrutinib)	log2 fold change [15]
GATA1 (UniProt P15976) is entered as inactive: 0.05	inactive: 0.024	inactive: -0.021	inactive: -0.015	inactive: 0.032	inactive: -0.083	inactive: 0.051	inactive: 0.027	inactive: 0.047	inactive: -0.021	inactive: 0.031	inactive: -0.004	inactive: 0.038	inactive: 0.041	inactive: 0.088	inactive: 0.027	active: -0.368	inactive: 0.028	inactive: 0.015	–
GGACT (UniProt Q9BVM4) is entered as –	–	–	–	–	–	–	–	–	inactive: 0.059	–	–	–	inactive: 0.028	inactive: -0.068	–	–	–	–	–
